These are yes or no findings as the source states them, for the method shown. Some binding calls cover weakened binding; strength is not graded here.
T1: TIM-3 (T cell immunoglobulin and mucin-domain containing-3) (human) (UniProt Q8TDQ0)
T1 sequence (looked up): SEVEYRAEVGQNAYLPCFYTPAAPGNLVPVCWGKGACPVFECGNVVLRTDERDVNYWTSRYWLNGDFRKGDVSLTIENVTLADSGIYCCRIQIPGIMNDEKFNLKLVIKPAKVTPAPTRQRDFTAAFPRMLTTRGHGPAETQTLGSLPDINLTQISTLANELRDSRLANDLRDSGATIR

Chains of the proteins cited; added tags and fusions are not shown. Residues count along the entry.
UniProt Q9NPH3, residues 21-359: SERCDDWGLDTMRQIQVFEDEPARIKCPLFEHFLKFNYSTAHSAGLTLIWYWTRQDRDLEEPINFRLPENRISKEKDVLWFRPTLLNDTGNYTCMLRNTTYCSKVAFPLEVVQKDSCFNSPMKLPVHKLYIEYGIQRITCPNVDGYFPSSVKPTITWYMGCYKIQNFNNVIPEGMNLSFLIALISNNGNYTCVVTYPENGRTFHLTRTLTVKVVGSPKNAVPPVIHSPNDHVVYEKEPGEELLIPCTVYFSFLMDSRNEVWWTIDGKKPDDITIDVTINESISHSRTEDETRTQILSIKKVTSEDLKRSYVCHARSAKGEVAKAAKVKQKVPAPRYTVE

B1: Fab clone 1A11 (Fab, V domains shown)
VH: EVQLVESGGGLVQPGGSLRLSCAASGFTFSSYAMSWVRQAPGKGPEWVSHINSGGGNTKYADSVKGRFTISRDNAKNTLYLQMNTLKPEDTAVYYCAKDVSGGYYGTYALDAWGQGTQVVVSS
VL: SYELTQSPSVSVALKQTAKITCGGDNIGSKSAQWYQQKPGQAPVLVIYADSRRPSGIPERFSGSNSGNTATLTISGAQAEDEADYYCQVWDSSAAVFGGGTHLTVL
notes: Llama-derived Fab from an immune library; the constant domains of the Fab are not
B2: Fab clone 2D11 (Fab, V domains shown)
VH: EVQLVQPGAELRNPGASVKVSCKASGYTFTMYYIDWVRQAPGQGLEWMGRIDPEDGGTKYAQKFQGRVTFTADTSTSTAYVELSSLRSEDTAVYYCARIPNGGSYYYTPYDYDYWGQGTQVTVSS
VL: QAVVTQEPSLSVSPGGTVTLTCGLTSGSVTSSNYPGWYRQTPGQAPRPLIYNTNSRHPGVPSRYSGSISENKATLTITGAEPEDEADYYCALHKGSYTAVFGGGTHLTVL
B3: Fab clone 2B10 (Fab, V domains shown)
VH: QVQLQESGPGLVKPSQTLSLTCTVSGGSITTNRYLWTWIRQTPGKGLEWVGAIAYSGRTYYSPSLKSRTSISRDTSKNQFTLQLSSVTPEDTGVYYCAHFTGWGGYYWGQGTQVTVSS
VL: QSALTQPPSVSGTLGKTVTISCAGTSSDIGGYNSVSWYQQLPGTAPKLLIYEVNKRASGIPDRFSGSKSGNTASLSISGLQSEDEADYYCASYRSANNVVFGGGTKLTVL
notes: Llama-derived Fab from an immune library; the constant domains of the Fab are not; also called 2610; 21310
B4: Fab clone 2A6 (Fab, V domains shown)
VH: QVQLVESGGGLVQPGGSLRLSCAASGFTFSNYWMYWVRQAPGKGLEWVSTINTNGAITLYADNVKDRFTVSRDNAKNTLYLQMNSLKSEDTAVYYCAKVKLSGYPHPYYAMDYWGKGTLVTVSS
VL: NFMLTQPPSLSGSLGQSARLTCTLGSGNSIGAHTISWYQQKAGSPPRYLLNYYSDSSNHQASGVPSRFSGSKDDSTNAGLLLISGLQPEDEADYYCAAGDGSGTVFGGGTKLTVL
notes: as for B1
B5: Fab clone 2B9 (Fab, V domains shown)
VH: EVQLQESGPGLVKPSQTLSLTCTVSGASVTTRYNYWSWIRQPPGKGLEWMGAITYSGSTYYSPSLKSRTSISRDTSKNQFTLQLSSVTPEDTAVYYCATEGSSSTGVSRYSFGSWGQGTQVTVSS
VL: ATMLTQSPGSLSVVPGESASISCKASQSLTHTDGTTALYWLQQKPGQRPQLLIYEVSVRASGVPDRFTGSGSGSDFTLKINGVKAEDAGVYYCAQVAYYPTFGQGTKVELK
notes: as for B1
B6: Fab clone 2E7 (Fab, V domains shown)
VH: ELQVVESGGGLVQPGGSLRLSCAASGFTFGSYDMSWHRQAPRKGPEWVSTISAGGGRTYYADSVKGRFTISRDNAKNTLYLQMNSLKPEDTAVYFCTKIVLDSWGQGTQVTVSS
VL: DVVLTQTPGSLSVVPGESASISCKASQSLIHIDGKTYLYWLLQKPGRRPELLIYQVSNHESGVPDRFTGSGSGTDFTLKISGVKAEDAGVYYCAQATYYPSFGSGTRLEIK
notes: as for B1
B7: Fab clone 2F8 (Fab, V domains shown)
VH: EVQLVESGGGLVQPGGSLRLSCAASGFTFGSYDMSWVRQAPGKGPEWVSTISAGGGRTYYADSVKDRFTISRDNAKNTLYLQMNSLKPEDTAVYYCAKVVIDYWGQGTQVTVSS
VL: DVVLTQTPGSLSVVPGESASISCKASQSLVHTDGKTYVYWLLQKPGQRPHLLIYQVSNHESGVPDRFTGSGSGTDFTLKISGVKAEDAGVYYCAQATYYPSFGSGTRLEIK
notes: as for B1
B8: Fab clone 2E2 (Fab, V domains shown)
VH: QLQLVESGGGLVQPGGSLRLSCAASGFTFGSYDMSWVRQAPGKGPEWVSRITSGGGSTYADSVKGRFTISRDNAKNTLSLQMNSLKSEDTAVYYCAAGQYSDGYYPYDYWGQGTQVTVSS
VL: DIVMTQSPSSLSASLGDRVTITCQASQSISSYLAWYQQKPGQGPKLLIYGASRLEPGVPSRFSGSGSGTSFTLTISGVEAEDLATYYCLQDYSWPYSFGSGTRLEIK
notes: as for B1
B9: Fab clone 2A9 (Fab, V domains shown)
VH: QVQLVESGPGLVKPSQTLSLTCTVSGGSITTSDDAWSWIRQPAGKGLEWMGVIAYDGSTRYSPSLQSRTSISRDTSKNQFSLQLSSVTPEDTAVYYCARTKGVGGTWALDAWGQGTLVTVSS
VL: EIVLTQSPSSVTASVGEKVTINCKSSQSVLSSSNQKNYLSWYQQRLGQSPRLLITWASTRESGVPDRFSGSGSTTDFTLTISSFQPEDAAVYYCQQGYGAPLTFGQGTKVELKR
notes: as for B1
B10: Fab clone 2G6 (Fab, V domains shown)
VH: EVQLVESGGGLVQPGGSLRLSCAASGFTFSSYSMSWVRQAPGKGPEWVSGINTSGGTTSYAASVKGRFTVSRDNAKNTLSLQMNSLEPEDTAVYYCVKHIRWSGSNYYYYGMDYWGKGTLVTVSS
VL: QAVLTQPPSVSGSPGQRFTISCTGSNRNIGNNYVNWYQQLPGTAPKLLIYSDNLRTSGVPARFSASKSGTTSSLTISGLQAEDEAVYYCSSWDDSLSGAVFGGGTHLTVL
notes: as for B1
B11: Fab clone 2A2 (Fab, V domains shown)
VH: EVQVQESGGGLVQPGGSLRLSCAASGFTFSSYAMSWVRQAPGKGLEWVSDINSGGGSTVYTDSVKGRFTISRDNAKNTLYLQMNSLKPDDTAVYYCATGGSYYSYRLFDYWGQGTQVTVSS
VL: DIQMTQSPSSVIVSAGEKVTINCKSSQSVLDSSNQKNYLAWYQQRLGQSPRLLIYWASTRESGVPDRFSGSGSTTDFTLTISSFQPEDAAVYYCQQGYSVPVTFGQGTKVELKR
notes: as for B1
B12: Fab clone 2D6 (Fab, V domains shown)
VH: QVQLQESGGGLVQPGGSLTLSCAASGFFFSSYAMSWVRQAPGKGLEWVSSISAGGGTSYYADSVKGRFTISRDSAKNTLVLQMNSLKPEDTAVYYCAKKRQNFWSEGYDSWGQGTQVTVSS
VL: HSAVTQPPSVSGSPGKAVTISCVGSSSDVGYGDYVSWYQQLPGMAPKLLIYDVEKRASGIPDRFSGSKSGNTASLTISGLQSEDEADYYCASYRSDSNFVFGGGTHLAVL
notes: as for B1
B13: Fab clone 2B6 (Fab, V domains shown)
VH: QVQLVESGGGLVQPGGSLRLSCAASGFAFSSYDMSWVRQAPGKGLEWVSTINSGGGSTNYADSMKGRFTISRDNAKNTVYLQMNSLKPEDTAVYYCAARSPYYTRVPLYDYWGQGTQVTVSS
VL: QAVVTQEPSLSVSLGGTVTLTCGLRSGSVTTSNYPGWFKQTPGQAPRTLIFGASSRHSGVPSRYSGSISGNKAALTITGAEPEDEADYYCALNKGTYTDVFGGGTKLTVL
notes: as for B1
B14: Fab clone 2C6 (Fab, V domains shown)
VH: QVQLVESGGGLVQPGGSLRLSCAASGFAFSSYDMSWVRQAPGKGPEWVSTINSGGGSTSYADSVKGRFTISRDNAKNTVYLQMNSLKPEDTAVYYCAARSLYYTRVPMYDYWGQGTQVTVSK
VL: QAVVTQEPSLSVSPGGTVTLTCGLSSGSVTTNNYPGWFQQTPGQAPRTLIYSTSSRHSGVPSRFSGSISGNKAALTITGAQPEDEADYYCALDIGSYTAVFGGGTHLTVL
notes: as for B1
B15: Fab clone 2E9 (Fab, V domains shown)
VH: EVQLVESGGGLVQPGGSLRLSCAASGFTFDDYTMSWVRQVPGKGLEWISGISGNGGRTDYVEPIEGRFTISRDNAKNTLYLQMNSLKSEDTAVYYCAKTSPQSLDYWGQGTQVTVSS
VL: DIVMTQSPSSVTASVGEKVTINCKSSQSVVSGSNQKSYLNWYQQRPGQPPRLLIYYASTQESGIPDRFSGSGSTTDFTLTISSVQPEDAAVYYCQQAYSAPYNFGSGTRLEIK
notes: as for B1
B16: Fab clone 1C1 (Fab, V domains shown)
VH: QVQLVESGPGLVKPSQTLSLTCTVSGGSITTNYYSWIWIRQPPGKGLEWMGASVYSGSTFYSPSLKNTSISKDTAQNQFTLQLRSVTPEDTAVYYCARASSAHWGSSFISIDYWGQGTQVTVSS
VL: QSVLTQPPSVSGSPGKTVTISCAGTSSDVGYGNYVSWYQQLPGMAPKLLIYDVDIRASGIADRFSGSKSGNTASLTISGLQSEDEADYYCASYRTNNNAVFGGGTHLTVL
B17: Fab clone 1F10 (Fab, V domains shown)
VH: QVQLVESGGGLVQPGGSLRLSCAASGFIFINYGMHWVRQAPGKGLEWVSAVNSGGASTDYADSVKGRFTISRDDAKNTLYLQMNSLKSEDTAVYYCVKGWFYGIHYWGKGTLVTVSS
VL: QAVLTQLPSVSGSPGQKITISCTGSSSNIGGGYSVQWFQHLPGTPPKLLIYGNSNRASGVPDRFSGSKSGSSASLTITGLQAEDEADYYCESYDDWLKGRGFGGGSKLTVL

Each binder was assayed against T1, TIM-3 (T cell immunoglobulin and mucin-domain containing-3) (human) (assay: Fab clones selected from llama immune libraries).

binding, binds:
B1
B2
B3
B4
B5
B6
B7
B8
B9
B10
B11
B12
B13
B14
B15

These binders were tested against IL1RAP (Interleukin 1 receptor accessory protein) (human) (UniProt Q9NPH3) (assay: Fab clones selected from llama immune libraries).

binding, binds:
B16
B17

Reference: US20190241668A1 (ARGENX, published 2019)
